# Laboratory results taken from the supplement of paper PMC6658780.
# ± gives the standard deviation of the averaged measurements. The list shows a part of the results. Repeats in this data set agree poorly, so a single value says little.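 Clinical A. baumannii isolates resistant to the partner antibiotic were chosen, and the screen identifies drugs restoring that antibiotic's activity. Subtracting the initial incubation reading corrects for coloured-compound background.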
# Tested on: Acinetobacter baumannii NCTC-13301
# Assay: percent growth inhibition of drug + antibiotic vs DMSO control; higher = more growth inhibition
# Protocol: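 Prestwick drugs tested at 20 uM and 7 uM with an antibiotic at 0.125x MIC (16 mg/L when MIC >128 mg/L) in cation-adjusted Mueller-Hinton broth, 384-well plates, duplicate runs on different days. Percent growth inhibition was computed from OD600 (24 h minus 0 h) relative to DMSO-only wells. Drug + 0.1% DMSO (no antibiotic) wells are also given. Only hits (max corrected inhibition > mean + 3SD) are listed. A. baumannii: NCTC-13301 was used for MEM/CIP/GEN/TGC and WP-487 for colistin. Duplicates with colistin are strongly discordant (run 2 near 100% for most drugs).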
smiles,measurement,setting,value
CCCCCC[C@H]1C(=O)O[C@H](C)[C@H](NC(=O)c2cccc(NC=O)c2O)C(=O)O[C@@H](C)[C@@H]1OC(=O)CC(C)C [Antimycin A],percent growth inhibition,"antibiotic (0.125x MIC): ciprofloxacin, 7 µM",-19.9 ± 2.5%
same,percent growth inhibition,"antibiotic (0.125x MIC): ciprofloxacin, 20 µM",-20.6 ± 0.096%
same,percent growth inhibition,"antibiotic (0.125x MIC): gentamicin, 7 µM",-97.1 ± 36%
same,percent growth inhibition,"antibiotic (0.125x MIC): gentamicin, 20 µM",-67.4 ± 13%
same,percent growth inhibition,"antibiotic (0.125x MIC): meropenem, 7 µM",-26.1 ± 24%
same,percent growth inhibition,"antibiotic (0.125x MIC): meropenem, 20 µM",-21.9 ± 9.7%
same,percent growth inhibition,"antibiotic (0.125x MIC): tigecycline, 7 µM",-6.29 ± 1.7%
same,percent growth inhibition,"antibiotic (0.125x MIC): tigecycline, 20 µM",-37.2 ± 50%

# A run of entries from further up, as a working copy:
smiles,measurement,setting,value
CCCCCC[C@H]1C(=O)O[C@H](C)[C@H](NC(=O)c2cccc(NC=O)c2O)C(=O)O[C@@H](C)[C@@H]1OC(=O)CC(C)C [Antimycin A],percent growth inhibition,"antibiotic (0.125x MIC): gentamicin, 7 µM",-97.1 ± 36%
same,percent growth inhibition,"antibiotic (0.125x MIC): gentamicin, 20 µM",-67.4 ± 13%
